PubChem BioAssay AID1508588 | Peter MacCallum Cancer Centre, 2020
This is one part, drawn at random, of about 18,000 reagents. Over the whole deposit, 790 (4.4%) are marked active. 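Calls rest on a combination of fold-change classes in drug and vehicle arms, not all shown here.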 Unmarked entries are inactive. No sequences are given here.

Test: 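Genome-wide search for knock-downs that heighten vemurafenib action in melanoma cells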 (primary screen)
Cells: human WM266.4 melanoma cells (BRAF V600 mutant)
Knock-down reagent: siRNA pool against human genes, 40 nM
Time to read-out: 96 h from transfection to read-out
Treatment: vemurafenib 300 nM (about IC25), added 48 h after transfection, for 48 h; comparison arm got DMSO vehicle only
Measurement: 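Ratios to non-targeting siRNA for cell gain, counted as DAPI nuclei after minus before drug and averaged over two replicates, and for absorbance-read medium lactate per cell; both binned into fold-change classes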
Direction: cell gain with vemurafenib: higher = more cell gain than with non-targeting siRNA; lactate per cell with vemurafenib: higher = more lactate made per cell
Hit rule: 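Enhancement is called by pairing each knock-down's vehicle-arm and drug-arm fold-change classes for viability or glycolysis; which class combinations qualify is not given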
Calls: active = enhances vemurafenib effect; inactive = no enhancement seen

Target gene	cell gain with vemurafenib	lactate per cell with vemurafenib
LAX1 (lymphocyte transmembrane adaptor 1)	-0.13	3.45
DDX19B (DEAD-box helicase 19B)	0.15	3.15
PIKFYVE (phosphoinositide kinase, FYVE-type zinc finger containing)	0.52	1.26
MYLK2 (myosin light chain kinase 2)	-0.04	1.42
DCC (DCC netrin 1 receptor)	1.28	0.66
AARS1 (alanyl-tRNA synthetase 1)	0.98 (active)	0.43
ATP9B (ATPase phospholipid transporting 9B)	1.02	0.48
GARIN3 (golgi associated RAB2 interactor family member 3)	0.74	0.75
QRSL1 (glutaminyl-tRNA amidotransferase subunit QRSL1)	1.07	0.56
SPOPL (speckle type BTB/POZ protein like)	0.58	0.9
GTF2B (general transcription factor IIB)	0.62	0.92
INAVA (innate immunity activator)	0.52	0.98
OR6C74 (olfactory receptor family 6 subfamily C member 74)	0.58	1.06
CPEB3 (cytoplasmic polyadenylation element binding protein 3)	0.77	0.75
PPP6R2 (protein phosphatase 6 regulatory subunit 2)	0.58	0.78
TMEM255B (transmembrane protein 255B)	-0.09	1.24
TARBP2 (TARBP2 subunit of RISC loading complex)	0.63	0.51
OR4Q3 (olfactory receptor family 4 subfamily Q member 3)	1.15	0.5
PER3 (period circadian regulator 3)	1.14	0.62
PWWP3A (PWWP domain containing 3A, DNA repair factor)	0.86	1.17
CENPP (centromere protein P)	0.34	1.79
ZNF343 (zinc finger protein 343)	0.94	1.03
ATG9B (autophagy related 9B)	0.98	1.27
IMP4 (IMP U3 small nucleolar ribonucleoprotein 4)	0.09 (active)	0.4
SLC2A11	0.28	1.21
DHRS9 (dehydrogenase/reductase 9)	0.12	0.64
TBC1D31 (TBC1 domain family member 31)	0.7	0.36
KLHL10 (kelch like family member 10)	0.83	1.25
PSRC1 (proline and serine rich coiled-coil 1)	0.55	0.93
SMURF2 (SMAD specific E3 ubiquitin protein ligase 2)	0.3	1.64
DPYSL3 (dihydropyrimidinase like 3)	0.99	0.78
NTM (neurotrimin)	0.28	0.67
PMEPA1 (prostate transmembrane protein, androgen induced 1)	0.33	0.7
ZNF664 (zinc finger protein 664)	0.47	0.75

3 of these entries, reformatted.
{"Target gene":"SLC2A11","cell gain with vemurafenib":0.28,"lactate per cell with vemurafenib":1.21}
{"Target gene":"DHRS9 (dehydrogenase/reductase 9)","cell gain with vemurafenib":0.12,"lactate per cell with vemurafenib":0.64}
{"Target gene":"TBC1D31 (TBC1 domain family member 31)","cell gain with vemurafenib":0.7,"lactate per cell with vemurafenib":0.36}
